From PubChem BioAssay AID330 (DTP/NCI, 2004)
The list is a part of this screen's results and no random one: it gathers tests that were run many times, whatever their T/C, doses with no T/C, and many T/C values between a quarter and a half above the control. Other doses and runs of a compound stand elsewhere. T/C is the treated group as % of the vehicle group. Some doses have a count of surviving animals in place of a T/C: the source holds a T/C of zero for them, seemingly a mark for toxic or unscored doses. Some survivor counts are full or nearly so, which does not show that the dose was tolerated: the source hardly ever lists a survival T/C far under the control, and the zero likely stands for such cases as well. Survivors were counted at the toxicity check, usually on the fifth day, unless a day is given; later deaths do not show. Schedule codes are those of the source, taken here to give the interval after Q, in days (D) or hours (H), and the number of doses after X. Some doses were run more than once; the values are given in rising order. Marks such as (2×) give the number of equal values in this list. For survival time, the PubChem record calls one and a half times the control and up active, and a quarter to a half above the control has no call in these data; cut-offs in other NCI protocols can differ. Some T/C values are followed by the survivors on the day toxicity was checked, most often the fifth; without a count, all were alive then.

Test system: P388 leukemia ip, CD2F1 mice, survival T/C
Assay: NCI In Vivo Anticancer Drug Screen. Data for tumor model P388 Leukemia (intraperitoneal) in CD2F1 (CDF1) mice
Settings: T/C endpoint: median survival time, higher T/C = longer survival
[1] = dose: 50.0 mg/kg/injection, schedule: Q01DX005 (ip), vehicle: saline
[2] = dose: 200.0 mg/kg/injection, schedule: Q01DX005 (ip), vehicle: saline
[3] = dose: 240.0 mg/kg/injection, schedule: Q01DX005 (ip), vehicle: Klucel (hydroxypropylcellulose) (HPC)
[4] = dose: 50.0 mg/kg/injection, schedule: Q01DX005 (ip), vehicle: saline with Tween-80
[5] = dose: 200.0 mg/kg/injection, schedule: Q01DX005 (ip), vehicle: Klucel (hydroxypropylcellulose) (HPC)
[6] = dose: 12.5 mg/kg/injection, schedule: Q01DX009 (ip), vehicle: water
[7] = dose: 25.0 mg/kg/injection, schedule: Q01DX009 (ip), vehicle: water
[8] = dose: 100.0 mg/kg/injection, schedule: Q04DX003 (ip), vehicle: saline

**Q.** Which survivor count [1] does the source give for CC1=CC(=Nc2cc(Cl)c(O)c(Cl)c2)C=CC1=O here?
**A.** The survivor count was 0 of 5.

**Q.** What about the survivor count (dose: 100.0 mg/kg/injection, schedule: Q01DX005 (ip), vehicle: saline) of the same compound?
**A.** Its survivor count is 0 of 5.

**Q.** And the survivor count [2]?
**A.** Its survivor count is 0 of 5.

**Q.** c1cnc2c(c1)n[n+]1[n-]c3ccccc3n21 was tested. Which survivor count [3] did it give?
**A.** Its survivor count is 3 of 6.

**Q.** Which survivor count (dose: 200.0 mg/kg/injection, schedule: Q01DX009 (ip), vehicle: saline with Tween-80) does the source give for C[Si](C)(C)c1c[nH]c(=O)[nH]c1=O here?
**A.** The survivor count was 4 of 5.

**Q.** And the survivor count (dose: 400.0 mg/kg/injection, schedule: Q01DX009 (ip), vehicle: saline with Tween-80)?
**A.** The survivor count was 3 of 6.

**Q.** For CC(=O)N(C)c1ccc(N=Nc2ccc3ncccc3c2)cc1, which survivor count [4] is on record?
**A.** The survivor count was 5 of 5.

**Q.** With CC(O)CN(CCN(CC(C)O)CC(C)O)CC(C)O.[Cl-].[Co+2] (stereo not drawn) as the compound, how does the survivor count (dose: 100.0 mg/kg/injection, schedule: Q01DX009 (ip), vehicle: saline) read?
**A.** The survivor count was 3 of 6.

**Q.** What about the survivor count (dose: 200.0 mg/kg/injection, schedule: Q01DX009 (ip), vehicle: saline) of the same compound?
**A.** The survivor count was 0 of 6.

**Q.** Which survivor count (dose: 25.0 mg/kg/injection, schedule: Q01DX005 (ip), vehicle: saline with Tween-80) does the source give for C=C(CN(C)C)C(=O)c1ccc(OC2OC(COC(C)=O)C(OC(C)=O)C(OC(C)=O)C2OC(C)=O)cc1 (stereo not drawn) here?
**A.** The survivor count was 1 of 6.

**Q.** And the survivor count [4]?
**A.** Its survivor count is 0 of 6.

**Q.** What about the survivor count (dose: 100.0 mg/kg/injection, schedule: Q01DX005 (ip), vehicle: saline with Tween-80) of the same compound?
**A.** Its survivor count is 0 of 6.

**Q.** What about the survivor count (dose: 200.0 mg/kg/injection, schedule: Q01DX005 (ip), vehicle: saline with Tween-80) of the same compound?
**A.** Its survivor count is 0 of 6.

**Q.** How did the survivor count [2] turn out when COC(=O)C(N)C(C)C (stereo not drawn) was run?
**A.** The survivor count was 5 of 5.

**Q.** Cc1cc[c]([Sn]([Cl])([O][Sn]([Cl])([c]2ccc(C)cc2)[c]2ccc(C)cc2)[c]2ccc(C)cc2)cc1 was tested. Which T/C (dose: 12.5 mg/kg/injection, schedule: Q01DX005 (ip), vehicle: saline) did it give?
**A.** The T/C was 132 and 141 % of control.

**Q.** What about the survivor count (dose: 25.0 mg/kg/injection, schedule: Q01DX005 (ip), vehicle: saline) of the same compound?
**A.** Its survivor count is 1 of 6.

**Q.** And the survivor count (dose: 50.0 mg/kg/injection, schedule: Q01DX005 (ip), vehicle: Klucel (hydroxypropylcellulose) (HPC))?
**A.** Its survivor count is 4 of 6.

**Q.** What about the survivor count [1] of the same compound?
**A.** Its survivor count is 0 of 6.

**Q.** And the survivor count (dose: 100.0 mg/kg/injection, schedule: Q01DX005 (ip), vehicle: Klucel (hydroxypropylcellulose) (HPC))?
**A.** The survivor count was 0 of 6.

**Q.** And the survivor count [5]?
**A.** The survivor count was 0 of 6.

**Q.** How did the survivor count [5] turn out when CCC1(CC)C(=O)NC(=O)[N]([Sn]([CH3])([CH3])[N]2C(=O)NC(=O)C(CC)(CC)C2=O)C1=O was run?
**A.** Its survivor count is 0 of 6.

**Q.** What does the source list for CCC[CH2][Sn]1([CH2]CCC)[O]OC2(CCCCC2)[O]1?
**A.** T/C (dose: 5.0 mg/kg/injection, schedule: Q01DX009 (ip), vehicle: saline with Tween-80): 127 % of control; survivor count (dose: 10.0 mg/kg/injection, schedule: Q01DX009 (ip), vehicle: saline with Tween-80): 0 of 6

**Q.** Which results are given for COc1cccc2c1C(=O)c1c(O)c3c(c(O)c1C2=O)C[C@@](O)(C(O)CO)C[C@@H]3OC1CC(N)C(O)C(C)O1 (stereo partly drawn)?
**A.** T/C (dose: 0.2 mg/kg/injection, schedule: Q01DX009 (ip), vehicle: water): 126 % of control; T/C (dose: 0.39 mg/kg/injection, schedule: Q01DX009 (ip), vehicle: water): 142 % of control; survivor count [6]: 4 of 4; T/C (dose: 12.5 mg/kg/injection, schedule: Q04DX003 (ip), vehicle: water): 130 % of control; survivor count [7]: 3 of 4 and 6 of 6; survivor count (dose: 32.0 mg/kg/injection, schedule: Q01DX009 (ip), vehicle: water): 6 of 6; survivor count (dose: 100.0 mg/kg/injection, schedule: Q04DX003 (ip), vehicle: water): 2 of 6

**Q.** With COc1c(OCC(O)CN2CCOCC2)c2c(C)coc2c2ccoc12 (stereo not drawn) as the compound, how does the survivor count [3] read?
**A.** Its survivor count is 0 of 6.

**Q.** O=C(CCl)Nc1cc2ccccc2oc1=O was tested. Which survivor count (dose: 240.0 mg/kg/injection, schedule: Q01DX005 (ip), vehicle: saline with Tween-80) did it give?
**A.** The survivor count was 1 of 6.

**Q.** What does the source list for NC(=O)CC(N)C(=O)O.[Cl-].[Cl-].[Cl-].[Cl-].[Pt+2] (stereo not drawn)?
**A.** survivor count [6]: 6 of 6; survivor count [7]: 5 of 6

**Q.** Which results are given for [Ni].[O-][Cl+3]([O-])([O-])O.[O-][n+]1ccnc2ccccc21?
**A.** T/C [8]: 128 % of control [5 of 6 alive]; survivor count [8]: 0 of 6; survivor count (dose: 200.0 mg/kg/injection, schedule: Q04DX003 (ip), vehicle: saline): 0 of 6 (2×); survivor count (dose: 400.0 mg/kg/injection, schedule: Q04DX003 (ip), vehicle: saline): 0 of 6 (2×)
